Drawing on paper PMC3691600, “Conversion of fatty aldehydes into alk (a/e)nes by in vitro reconstituted cyanobacterial aldehyde-deformylating oxygenase with the cognate electron transfer system” (Biotechnology for Biofuels, 2013), this text covers binding for one substance.

Sequences of proteins named here, by UniProt entry; tags and fusion partners are left off. A change or cut given only in a name is not applied to a line headed by its entry.
UniProt P0A3D2: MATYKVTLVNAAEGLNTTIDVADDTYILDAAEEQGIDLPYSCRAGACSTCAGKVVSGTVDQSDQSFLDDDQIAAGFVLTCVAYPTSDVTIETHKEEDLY

No constants are given. Whether binding was seen depends on the method and setting.

In the experiment the target is Ferredoxin I (SynPcc7942_1499) from Synechococcus elongatus PCC7942 (Synechococcus elongatus PCC7942) (UniProt P0A3D2). The experiment in a line: AUC; Fd after removal of the N-terminal His-tag with thrombin; estimated molecular weight about 11.8 kDa; both purified.

Consider “Ferredoxin I (SynPcc7942_1499) from Synechococcus elongatus PCC7942 (from UniProt P0A3D2 1-99)”, for which the binding entry was “no binding”.
